For this test, the target named is mFGFR2β-Fc (IIIb) (Mouse) (UniProt P21803). The test is described as follows: ELISA; biotinylated Fc fusion protein on streptavidin plate, Fab at 1 µg/ml; signal against TRAIL-Fc wells (+++: ratio >5).

By UniProt entry, the sequences of proteins in these tests, tags left out. Where a name states a change or a piece, a line headed by the entry shows the natural chain unless it says otherwise. Chains listed by the source or under a name are the forms on record and can include a tag or linker.
mFGFR2β-Fc (IIIb) (P21803, form named): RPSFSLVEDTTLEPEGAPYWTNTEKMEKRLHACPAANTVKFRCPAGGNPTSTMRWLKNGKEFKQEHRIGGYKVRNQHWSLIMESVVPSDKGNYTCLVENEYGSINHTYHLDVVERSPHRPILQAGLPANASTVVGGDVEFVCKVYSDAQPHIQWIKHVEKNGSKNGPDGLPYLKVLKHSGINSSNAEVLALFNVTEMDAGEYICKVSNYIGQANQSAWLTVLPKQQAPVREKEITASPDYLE

These are yes or no findings as the source states them, for the method shown. Some entries that bind do so weakly or less than the wild type.

B1: parental Fab fragment M048-D01 (Fab, V domains shown)
VH: EVQLLESGGGLVQPGGSLRLSCAASGFTFSSYAMSWVRQAPGKGLEWVSAISGSGTSTYYADSVKGRFTISRDNSKNTLYLQMNSLRAEDTAVYYCARVRYNWNHGDWFDPWGQGTLVTVSS
VL: QSVLTQPPSASGTPGQRVTISCSGSSSNIGNNYVSWYQQLPGTAPKLLIYENYNRPAGVPDRFSGSKSGTSASLAISGLRSEDEADYYCSSWDDSLNYWVFGGGTKLTVL
Take B1: the binding result is “binds”.

The record behind these values is US20150023989A1, “NEW ANTIBODY DRUG CONJUGATES (ADCS) AND THE USE THEREOF” (SEATTLE GENETICS, INC., priority 2011, published 2015).
